# In patent publication US11058690B2, “Use of cytochrome bc1 complex inhibitor in preparing pharmaceutical composition” (BEIJING WEILANZHIYUAN MEDICAL TECHNOLOGY CO., LTD., priority 2017, dated 2021):
# For at least one compound, name, drawing or mass did not settle the structure.
# System: SD rats
# Test: carrageenan-induced rat paw swelling test
# Format: in vivo
# Procedure: Eighteen healthy adult male mice were randomly divided into 3 groups. FAPM (100 mg/kg) was administered intraperitoneally once a day for 3 consecutive days. The control group was injected with the same amount of solvent, and the positive drug dexamethasone (4 mg/kg) was administered intragastrically once a day for 3 consecutive days. Thirty minutes after the last administration, 0.1 mL of 1% carrageenan was injected subcutaneously into the right hind paw of each rat, and the plantar thickness was measured before injection and 1, 2 and 3 hours after injection. Three hours later, the rats were sacrificed by dislocation. The feet were cut off from the knee joints and weighed on a precision balance. The swelling degree of the paw (right foot weight-left foot weight) was calculated.
smiles,measurement,setting,value
C[C@@H]1C[C@H]2[C@@H]3CCC4=CC(=O)C=C[C@]4(C)[C@@]3(F)[C@@H](O)C[C@]2(C)[C@@]1(O)C(=O)CO [dexamethasone],carrageenan-induced rat paw swelling,4 mg/kg,significantly inhibited
same,curative effect compared with FAPM,4 mg/kg versus FAPM 100 mg/kg,slightly better than FAPM
